Data reported in PubChem BioAssay AID504467 (National Center for Advancing Translational Sciences (NCATS), 2011).
Hit rate of the full screen: of about 330,000 compounds, about 7,700 (2.3%) were called active. Inconclusive means that the source gave no clear call. Such entries were picked first, then a sample of the others. Calls come from the whole dose curve; as a rule, active = well fitted inhibition curve with a large enough effect; inconclusive = small, poorly fitted or top-dose-only effect, or effect the other way; inactive = flat fitted curve, though single readings scatter. Where the call is inconclusive, the potency comes from a doubtful curve fit.

test: qHTS screen for small molecules that inhibit ELG1-dependent DNA repair in human embryonic kidney (HEK293T) cells expressing luciferase-tagged ELG1; details: HEK293T ELG1-luciferase reporter, luminescence, 16 h, DNA damage induced by 5-fluorouridine; series mostly up to 46.1 µM; note: nearly all actives have a fitted effect of over 55% in size
Method in brief: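 Overnight (16 hr) co-exposure of 2,000 cells/well to 5-fluorouridine and compound at 37 °C preceded detection. Luciferase was quantified via ONE-Glo luminescence; loss of signal denotes inhibition.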
Potency is the fitted concentration of half-maximal effect.

Row | Compound | Potency
1 | CCOc1cccc(/C=N/NC(=S)NCCN2CCOCC2)c1O | active: 13 µM
2 | Cc1[nH]n(-c2ccccc2)c(=O)c1N=Nc1ccc(C#N)cc1 | inconclusive: 0.164 µM [inhibitor, partial curve, poor fit]
3 | Cc1cc(F)ccc1NC(=O)c1cnccn1 | inconclusive: 0.82 µM [activator, full curve, poor fit]
4 | Cc1cc(C(=O)NCCN2CCN(c3cccc(Cl)c3)CC2)n(-c2ccccc2)n1 | active: 8.2 µM
5 | CCc1ccc2oc(-c3ccc(N)cc3)nc2c1 | inconclusive: 1.03 µM [activator, full curve]
6 | CC(CCc1ccccc1)NC(=O)C1CCN(C(=O)c2sccc2-n2cccc2)CC1 (centres undefined) | inconclusive: 29.1 µM [inhibitor, single point]
7 | CCOc1ccc(CCNC(=O)c2nccnc2C(=O)O)cc1OCC | inconclusive: 29.1 µM [activator, partial curve, poor fit]
8 | O=C(Nc1ccccc1N1CCOCC1)c1ccc2c(c1)OCCO2 | inactive
9 | COc1cc(NC(=O)CN2C(=O)NC(C)(c3ccc4ccccc4c3)C2=O)c(C)cc1[N+](=O)[O-] (centres undefined) | inconclusive: 29.1 µM [inhibitor, single point]
10 | CCn1c(CNC(=O)c2ccc(F)cc2)cc2ccccc21 | inactive
11 | CC(C)c1ccc(NC(=O)COC(=O)C2CC3C=CC2C3)cc1 (centres undefined) | inconclusive: 25.9 µM [activator, single point]
12 | CC(=O)Nc1ccc(S(=O)(=O)Nc2cccc(-c3csc(C)n3)c2)cc1 | inconclusive: 29.1 µM [inhibitor, single point]
13 | CN(C)c1cccc(C(=O)Nc2nc3ccccc3[nH]2)c1 | inconclusive: 1.16 µM [activator, partial curve]
14 | CN(Cc1ccccc1)C(=O)COc1cc(=O)n(C)c2ccccc12 | inconclusive: 18.4 µM [activator, single point]
15 | CN(CCNC(=O)c1ccc(CS(=O)(=O)c2c(Cl)cccc2Cl)o1)CCc1ccccc1 | inconclusive: 0.58 µM [activator, partial curve]
16 | Cc1cccc(Cn2c(N(C)Cc3ccccc3)nc3c2c(=O)[nH]c(=O)n3C)c1 | inconclusive: 16.4 µM [inhibitor, single point]
17 | Cc1csc(NC(=O)c2cccc(C)c2C)n1 | inconclusive: 18.4 µM [activator, partial curve]
18 | CCCCN(C)CC(O)Cn1cc(/C=C/C(=O)c2ccc(C)cc2)c2ccccc21 (centres undefined) | inactive
19 | Cc1ccc(S(=O)(=O)NCC(=O)NCc2cc(=O)n(C)c(=O)n2C)cc1 | inconclusive: 18.3 µM [activator, partial curve, poor fit]
20 | O=C(COC(=O)c1ccc2ncsc2c1)Nc1ccccc1Br | inactive
21 | Cc1cc(C)cc(N(CCC#N)C(=O)COC(=O)c2ccccc2SCC(=O)N2CCCC2)c1 | inconclusive: 29.1 µM [inhibitor, single point]
22 | Brc1ccccc1-c1nnc2sc(-c3ccc4c(c3)OCCO4)nn12 | inconclusive: 35.5 µM [inhibitor, single point]

Among those listed so far, these have an NH in an aromatic ring:
Row | Compound | Potency
2 | Cc1[nH]n(-c2ccccc2)c(=O)c1N=Nc1ccc(C#N)cc1 | inconclusive: 0.164 µM [inhibitor, partial curve, poor fit]
13 | CN(C)c1cccc(C(=O)Nc2nc3ccccc3[nH]2)c1 | inconclusive: 1.16 µM [activator, partial curve]
16 | Cc1cccc(Cn2c(N(C)Cc3ccccc3)nc3c2c(=O)[nH]c(=O)n3C)c1 | inconclusive: 16.4 µM [inhibitor, single point]

Following part.

Row | Compound | Potency
23 | COc1ccc(-c2ccc(C#N)c(SCC(=O)NCCc3ccccc3)n2)cc1OC | inactive
24 | O=C(C1CC1)N1N=C(c2ccccc2)CC1(O)C(F)(F)F (centres undefined) | inconclusive: 6.51 µM [inhibitor, single point]
25 | O=C(NCC(=O)N1CCN(Cc2ccccc2)CC1)c1cccs1 | inconclusive: 5.17 µM [activator, single point]
26 | N#Cc1c(-c2ccccc2)nc(SCC(=O)N2c3ccccc3Sc3ccccc32)[nH]c1=O | inactive
27 | CCN(CC)C(=O)c1cc2sc3ccccc3c2s1 | inconclusive: 9.2 µM [activator, partial curve]
28 | Cc1ccc(C)c(N2CCN(C(=O)CC3Sc4ccccc4NC3=O)CC2)c1 (centres undefined) | inactive
29 | N#CCC(=O)Nc1ccc(C(=O)OCC(=O)N=c2sccn2Cc2ccccc2Cl)cc1 | inconclusive: 4.61 µM [inhibitor, single point]
30 | O=C1NC(=O)C2(COC(c3ccccc3Cl)OC2)S1 (centres undefined) | inconclusive: 5.8 µM [inhibitor, partial curve, poor fit]
31 | CC(C)(NC(=O)c1cc(Cl)c2ccccc2c1O)C(=O)O | inconclusive: 16.4 µM [activator, single point]
32 | COc1ccc(S(=O)(=O)N2CCC(C(=O)NCCC(=O)NC3CC3)CC2)cc1 | inconclusive: 29.1 µM [activator, single point]
33 | O=C(O)CSCC(=O)Nc1ccc(Cl)cc1C(F)(F)F | inactive
34 | Cc1ccc(CNc2nc3ccccc3n2C)cc1 | inconclusive: 2.31 µM [activator, partial curve]
35 | COC(=O)c1ccc(C)c(NS(=O)(=O)c2ccc3c(c2)OCCO3)c1 | inconclusive: 29.1 µM [activator, single point]
36 | COc1cccc(NC(=O)c2cnc[nH]2)c1 | inconclusive: 16.4 µM [activator, partial curve]
37 | CCc1ccc(N2C(=O)Nc3ccccc3C2(O)C(=O)N2CCN(c3ccccn3)CC2)cc1 (centres undefined) | inconclusive: 29.1 µM [activator, single point]
38 | CC(C)(C)c1ccc(CCC2OCC(C[N+]3(C)CCOCC3)O2)cc1 (centres undefined) | inactive
39 | COc1ccccc1C(=O)NC(=S)Nc1ccccc1N1CCCCC1 | inconclusive: 20.6 µM [activator, partial curve, poor fit]
40 | CCc1cn(S(=O)(=O)c2ccccc2OC)nc1N | inconclusive: 18.4 µM [activator, partial curve, poor fit]
41 | O=C(Nc1nnc(C2CCCC2)s1)C1CCC1 | inconclusive: 20.6 µM [activator, partial curve]
42 | CCc1nn2c(=O)cc(COc3cccc(NC(=O)c4ccco4)c3)nc2s1 | inactive
43 | CCOC(=O)n1c(=O)n(Cc2ccc(OC)cc2)c2ccccc21 | inconclusive: 6.51 µM [inhibitor, partial curve]
44 | COc1cccc(C(=O)N/N=C(\CC(C)C)c2ccccc2)c1 | inactive
